Where no unit stands, none is given here, and values compare only within one read-out.
Key:
[1] = Serum ethanolamine phospholipid ratios to PtdEt 16:0/18:0 (M01) in human cohorts
[2] = Serum ethanolamine phospholipid levels in human cohorts (dementia severity, post-mortem pathology, age) by flow-injection MS/MS
[3] = serum, females, post mortem SDAT
[4] = serum, females, post mortem control

## CCCCCCCC/C=C\CCCCCCCC(=O)OC(COCCCCCCCCCCCCCCCC)COP(=O)(O)OCCN (centres unmarked) [Metabolite M05, Plasmanyl 16:0/18:1]
[1]; AD, All to CN, Male
  Ratio of ethanolamine phospholipid ratios to M01 between cohorts: 0.840
[1]; ADAS 5-19 to CN, Male
  Ratio of ethanolamine phospholipid ratios to M01 between cohorts: 0.858
[1]; ADAS 20-39 to CN, Male
  Ratio of ethanolamine phospholipid ratios to M01 between cohorts: 0.841
[1]; ADAS 40-70 to CN, Male
  Ratio of ethanolamine phospholipid ratios to M01 between cohorts: 0.798
[1]; Cognitive Normal, Male, serum
  Average serum ethanolamine phospholipid ratio to M01, Mean: 0.106
[1]; SDAT, ADAS 5-19, Male, serum
  Average serum ethanolamine phospholipid ratio to M01, Mean: 0.091
[1]; SDAT, ADAS 20-39, Male, serum
  Average serum ethanolamine phospholipid ratio to M01, Mean: 0.089
[1]; SDAT, ADAS 40-70, Male, serum
  Average serum ethanolamine phospholipid ratio to M01, Mean: 0.085
[1]; SDAT_all, Male, serum
  Average serum ethanolamine phospholipid ratio to M01, Mean: 0.089
[1]; human serum, females aged 30-39
  Ethanolamine Phospholipid Ratio to M01, Mean, Age Ctl, 30-39, Female: 0.112
[1]; human serum, females aged 40-49
  Ethanolamine Phospholipid Ratio to M01, Mean, Age Ctl, 40-49, Female: 0.118
[1]; human serum, females aged 50-59
  Ethanolamine Phospholipid Ratio to M01, Mean, Age Ctl, 50-59, Female: 0.105
[1]; human serum, females aged 50-59 vs. females aged 40-49
  Ratio of Ethanolamine Phospholipid Ratio to M01, 50-59 vs. 40-49, Female: 0.892
[1]; human serum, females aged 60-69
  Ethanolamine Phospholipid Ratio to M01, Mean, Age Ctl, 60-69, Female: 0.085
[1]; human serum, females aged 60-69 vs. females aged 40-49
  Ratio of Ethanolamine Phospholipid Ratio to M01, 60-69 vs. 40-49, Female: 0.721
[1]; human serum, females aged 70+
  Ethanolamine Phospholipid Ratio to M01, Mean, Age Ctl, 70+_Female: 0.089
[1]; human serum, females aged 70+ vs. females aged 40-49
  Ratio of Ethanolamine Phospholipid Ratio to M01, 70+ vs. 40-49, Female: 0.758
[1]; human serum, males aged 50-59 vs. males aged 40-49
  Ratio of Ethanolamine Phospholipid Ratio to M01, 50-59 vs. 40-49, Male: 0.984
[1]; human serum, males aged 60-69 vs. males aged 40-49
  Ratio of Ethanolamine Phospholipid Ratio to M01, 60-69 vs. 40-49, Male: 0.884
[1]; human serum, males aged 70+ vs. males aged 40-49
  Ratio of Ethanolamine Phospholipid Ratio to M01, 70+ vs. 40-49, Male: 0.863
[1]; serum, females, ADAS 5-19 vs cognitive normal
  Ratio of ethanolamine phospholipid ratio to M01, ADAS 5-19 to CN, Female: 0.989
[1]; serum, females, ADAS 20-39 vs ADAS 5-19
  Ratio of ethanolamine phospholipid ratio to M01, ADAS 20-39 to 5-19, Female: 0.972
[1]; serum, females, ADAS 20-39 vs cognitive normal
  Ratio of ethanolamine phospholipid ratio to M01, ADAS 20-39 to CN, Female: 0.962
[1]; serum, females, ADAS 40-70 vs ADAS 5-19
  Ratio of ethanolamine phospholipid ratio to M01, ADAS 40-70 to 5-19, Female: 0.889
[1]; serum, females, ADAS 40-70 vs ADAS 20-39
  Ratio of ethanolamine phospholipid ratio to M01, ADAS 40-70 to 20-39, Female: 0.914
[1]; serum, females, ADAS 40-70 vs cognitive normal
  Ratio of ethanolamine phospholipid ratio to M01, ADAS 40-70 to CN, Female: 0.879
[1]; serum, females, SDAT ADAS 5-19
  Ethanolamine phospholipid ratio to M01, Mean, SDAT, ADAS 5-19, Female: 0.091
[1]; serum, females, SDAT ADAS 20-39
  Ethanolamine phospholipid ratio to M01, Mean, SDAT, ADAS 20-39, Female: 0.088
[1]; serum, females, SDAT ADAS 40-70
  Ethanolamine phospholipid ratio to M01, Mean, SDAT, ADAS 40-70, Female: 0.081
[1]; serum, females, all AD vs cognitive normal
  Ratio of ethanolamine phospholipid ratio to M01, AD, All to CN, Female: 0.941
[1]; serum, females, all SDAT
  Ethanolamine phospholipid ratio to M01, Mean, SDAT_all Female: 0.086
[1]; serum, females, autopsy AD vs post mortem control
  Ratio of ethanolamine phospholipid ratio to M01, Autopsy AD vs. Control, Female: 0.809
[1]; serum, females, cognitive normal
  Ethanolamine phospholipid ratio to M01, Mean, Cognitive Normal, Female: 0.092
[1]; [3]
  Ethanolamine phospholipid ratio to M01, Mean, Post Mortem SDAT Female: 0.032
[1]; [4]
  Ethanolamine phospholipid ratio to M01, Mean, Post Mortem Ctl, Female: 0.040
[1]; serum, males, SDAT ADAS 20-39 vs ADAS 5-19
  Ratio of ethanolamine phospholipid ratio to M01, ADAS 20-39 to 5-19, Male: 0.980
[1]; serum, males, SDAT ADAS 40-70 vs ADAS 5-19
  Ratio of ethanolamine phospholipid ratio to M01, ADAS 40-70 to 5-19, Male: 0.930
[1]; serum, males, SDAT ADAS 40-70 vs ADAS 20-39
  Ratio of ethanolamine phospholipid ratio to M01, ADAS 40-70 to 20-39, Male: 0.948
[1]; serum, males, age control 30-39
  Ethanolamine phospholipid ratio to M01, Mean, Age Ctl, 30-39, Male: 0.113
[1]; serum, males, age control 40-49
  Ethanolamine phospholipid ratio to M01, Mean, Age Ctl, 40-49, Male: 0.102
[1]; serum, males, age control 50-59
  Ethanolamine phospholipid ratio to M01, Mean, Age Ctl, 50-59, Male: 0.101
[1]; serum, males, age control 60-69
  Ethanolamine phospholipid ratio to M01, Mean, Age Ctl, 60-69, Male: 0.091
[1]; serum, males, age control 70+
  Ethanolamine phospholipid ratio to M01, Mean, Age Ctl, 70+_Male: 0.088
[1]; serum, males, post mortem SDAT
  Ethanolamine phospholipid ratio to M01, Mean, Post Mortem SDAT Male: 0.029
[1]; serum, males, post mortem SDAT vs post mortem control
  Ratio of ethanolamine phospholipid ratio to M01, SDAT vs Control (post mortem, males): 0.607
[1]; serum, males, post mortem control
  Ethanolamine phospholipid ratio to M01, Mean, Post Mortem Ctl, Male: 0.048
[2]; AD, All to CN, Male
  Ratio of serum levels: 0.882
[2]; ADAS 5-19 to CN, Male
  Ratio of serum levels: 0.896
[2]; ADAS 20-39 to 5-19, Male
  Ratio of serum levels: 0.966
[2]; ADAS 20-39 to CN, Male
  Ratio of serum levels: 0.865
[2]; ADAS 40-70 to 5-19, Male
  Ratio of serum levels: 0.933
[2]; ADAS 40-70 to 20-39, Male
  Ratio of serum levels: 0.966
[2]; ADAS 40-70 to CN, Male
  Ratio of serum levels: 0.836
[2]; Cognitive Normal, Female
  Serum level, Mean: 0.011
[2]; Cognitive Normal, Male
  Average serum level, Mean: 0.012
[2]; Post Mortem Ctl, Male
  Serum level, Mean: 0.006
[2]; Post Mortem SDAT Male
  Serum level, Mean: 0.004
[2]; Post mortem SDAT vs Control, Male
  Ratio of serum levels: 0.479
[2]; SDAT, ADAS 5-19, Female
  Serum level, Mean: 0.010
[2]; SDAT, ADAS 5-19, Male
  Average serum level, Mean: 0.011
[2]; SDAT, ADAS 20-39, Female
  Serum level, Mean: 0.009
[2]; SDAT, ADAS 20-39, Male
  Average serum level, Mean: 0.010
[2]; SDAT, ADAS 40-70, Female
  Serum level, Mean: 0.009
[2]; SDAT, ADAS 40-70, Male
  Average serum level, Mean: 0.010
[2]; SDAT_all, Female
  Serum level, Mean: 0.009
[2]; SDAT_all, Male
  Average serum level, Mean: 0.010
[2]; serum level ratio, females, ADAS 5-19 vs CN
  Ratio, ADAS 5-19 to CN, Female: 0.925
[2]; serum level ratio, females, ADAS 20-39 vs ADAS 5-19
  Ratio, ADAS 20-39 to 5-19, Female: 0.967
[2]; serum level ratio, females, ADAS 20-39 vs CN
  Ratio, ADAS 20-39 to CN, Female: 0.895
[2]; serum level ratio, females, ADAS 40-70 vs ADAS 5-19
  Ratio, ADAS 40-70 to 5-19, Female: 0.936
[2]; serum level ratio, females, ADAS 40-70 vs ADAS 20-39
  Ratio, ADAS 40-70 to 20-39, Female: 0.968
[2]; serum level ratio, females, ADAS 40-70 vs CN
  Ratio, ADAS 40-70 to CN, Female: 0.867
[2]; serum level ratio, females, age 50-59 vs 40-49
  Ratio, 50-59 vs. 40-49, Female: 0.811
[2]; serum level ratio, females, age 60-69 vs 40-49
  Ratio, 60-69 vs. 40-49, Female: 0.798
[2]; serum level ratio, females, age 70+ vs 40-49
  Ratio, 70+ vs. 40-49, Female: 0.832
[2]; serum level ratio, females, all AD vs cognitively normal
  Ratio, AD, All to CN, Female: 0.893
[2]; serum level ratio, females, autopsy AD vs control
  Ratio, Autopsy AD vs. Control, Female: 0.508
[2]; serum level ratio, males, age 50-59 vs 40-49
  Ratio, 50-59 vs. 40-49, Male: 0.953
[2]; serum level ratio, males, age 60-69 vs 40-49
  Ratio, 60-69 vs. 40-49, Male: 1.011
[2]; serum level ratio, males, age 70+ vs 40-49
  Ratio, 70+ vs. 40-49, Male: 0.979
[2]; serum, females, age 30-39
  Mean serum level, Age Ctl, 30-39, Female: 0.011
[2]; serum, females, age 40-49
  Mean serum level, Age Ctl, 40-49, Female: 0.013
[2]; serum, females, age 50-59
  Mean serum level, Age Ctl, 50-59, Female: 0.010
[2]; serum, females, age 60-69
  Mean serum level, Age Ctl, 60-69, Female: 0.010
[2]; serum, females, age 70+
  Mean serum level, Age Ctl, 70+, Female: 0.011
[2]; [3]
  Mean serum level, Post Mortem SDAT, Female: 0.003
[2]; [4]
  Mean serum level, Post Mortem Ctl, Female: 0.007
[2]; serum, males, age 30-39
  Mean serum level, Age Ctl, 30-39, Male: 0.014
[2]; serum, males, age 40-49
  Mean serum level, Age Ctl, 40-49, Male: 0.012
[2]; serum, males, age 50-59
  Mean serum level, Age Ctl, 50-59, Male: 0.011
[2]; serum, males, age 60-69
  Mean serum level, Age Ctl, 60-69, Male: 0.012
[2]; serum, males, age 70+
  Mean serum level, Age Ctl, 70+, Male: 0.011
